According to PubChem BioAssay AID1117319 (Southern Research Institute, 2015):
Among all 260,000 compounds or so, about 1,500 (0.58%) were called active. Inconclusive results, whose numbers are uncertain, are shown with a selection of clear calls.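 Rule for the calls: active = inhibition above a set limit at one or more doses, reproduced on every date tested; inconclusive = results disagree between test dates, or hit never tested in dose response; inactive = the rest.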

Sequences of proteins named here, by UniProt entry; tags and fusion partners are left off. A change or cut given only in a name is not applied to a line headed by its entry.
UniProt P69720: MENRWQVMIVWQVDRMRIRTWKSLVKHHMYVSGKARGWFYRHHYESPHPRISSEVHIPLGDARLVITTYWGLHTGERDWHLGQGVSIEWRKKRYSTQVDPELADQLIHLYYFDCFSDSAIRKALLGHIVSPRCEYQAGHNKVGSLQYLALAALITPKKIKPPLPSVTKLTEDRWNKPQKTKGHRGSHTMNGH
UniProt P69721: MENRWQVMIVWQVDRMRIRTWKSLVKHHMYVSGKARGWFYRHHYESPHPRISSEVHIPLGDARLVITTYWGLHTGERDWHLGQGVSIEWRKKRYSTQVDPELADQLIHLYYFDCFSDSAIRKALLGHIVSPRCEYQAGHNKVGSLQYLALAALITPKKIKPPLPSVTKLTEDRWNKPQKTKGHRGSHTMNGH
UniProt P69722: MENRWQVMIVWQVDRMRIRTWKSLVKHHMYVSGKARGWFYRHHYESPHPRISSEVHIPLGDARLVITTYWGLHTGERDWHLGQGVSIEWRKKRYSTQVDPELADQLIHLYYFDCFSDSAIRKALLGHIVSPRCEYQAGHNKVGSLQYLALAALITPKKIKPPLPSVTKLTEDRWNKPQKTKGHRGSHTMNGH
UniProt P69723: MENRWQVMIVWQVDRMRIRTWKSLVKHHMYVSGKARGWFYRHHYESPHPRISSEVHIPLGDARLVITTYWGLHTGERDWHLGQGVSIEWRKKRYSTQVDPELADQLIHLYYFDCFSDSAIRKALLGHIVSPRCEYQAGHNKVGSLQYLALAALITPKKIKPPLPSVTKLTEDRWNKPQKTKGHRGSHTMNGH
UniProt Q9HC16: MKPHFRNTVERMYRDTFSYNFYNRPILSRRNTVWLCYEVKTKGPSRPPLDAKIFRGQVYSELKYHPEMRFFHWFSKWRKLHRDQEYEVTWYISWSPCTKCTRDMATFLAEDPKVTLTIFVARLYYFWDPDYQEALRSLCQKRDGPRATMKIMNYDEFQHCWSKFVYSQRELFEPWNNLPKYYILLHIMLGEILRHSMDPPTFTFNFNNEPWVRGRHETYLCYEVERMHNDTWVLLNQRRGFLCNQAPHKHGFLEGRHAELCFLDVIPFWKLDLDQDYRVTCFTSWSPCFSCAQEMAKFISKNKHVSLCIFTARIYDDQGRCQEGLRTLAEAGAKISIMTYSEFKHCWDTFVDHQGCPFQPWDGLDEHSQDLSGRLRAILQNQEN

Biological target: Virion infectivity factor (Human immunodeficiency virus type 1 group M subtype B (isolate BH10)) + Virion infectivity factor (Human immunodeficiency virus type 1 group M subtype B (isolate BRU/LAI)) + Virion infectivity factor (Human immunodeficiency virus type 1 group M subtype B (isolate PCV12)) + Virion infectivity factor (Human immunodeficiency virus type 1 group M subtype B (isolate HXB2)) + DNA dC->dU-editing enzyme APOBEC-3G (Homo sapiens) (UniProt P69720+P69721+P69722+P69723+Q9HC16)
Assay: inhibitors of Vif binding to APOBEC3G peptide, primary screen, biochemical, TR-FRET, GST-Vif 1-94, biotin-A3G peptide, dose response retest (AID 1117319);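 note: Vif residues 1-94 fused to GST binding biotinylated APOBEC3G peptide 110-148; 0% = full assay without inhibitor and 100% = GST in place of GST-Vif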
Details: hits give high values

| SMILES | inhibition |
| --- | --- |
| O=C(CSCc1ccc([N+](=O)[O-])cc1)Nc1cccc(C(=O)Nc2ccccc2C(=O)O)c1 | inconclusive: 35% |
| O=C1C(Nc2ccccc2)=CC(c2ccc(O)cc2)N1c1ccccc1 (centres undefined) | inconclusive: 57.3% |
| O=C(CCC(=O)OCc1ccc(C(=O)Oc2ccc(Cl)cc2)cc1)Nc1ccccc1 | inconclusive: 47.5% |
| S=C(NCCNCc1ccccc1)NC1CCCCC1 | inconclusive: 55.2% |
| CSc1ncccc1C(=O)OCC(=O)NC(=O)NCCC(C)C | inactive: -2.12% |
| C/C(CC(=O)N1CCN(C=O)CC1)=N\NC(=O)c1ccc([N+](=O)[O-])cc1 | inconclusive: 54.4% |
| Cc1ccc(CSCC(=O)NCCCN2CCOCC2)cc1 | inconclusive: 38.8% |
| Cc1c(NC(=O)CN2C(=O)NC(CCc3ccccc3)C2=O)c(=O)n(-c2ccccc2)n1C (centres undefined) | inconclusive: 50.8% |
| O=c1cc(-c2ccccc2F)oc2ccccc12 | inactive: 17.5% |
| Cc1ccc(S(=O)(=O)CCc2nnc(NC(=O)c3cccs3)s2)cc1 | inconclusive: 54.8% |
| Cc1ccc(N2CCN(c3ccc(C)cc3)C2c2cccnc2)cc1 | inactive: -3.62% |
| O=C(/C=C/c1ccco1)NC(=S)Nc1ccccc1O | inconclusive: 42.2% |
| CC1CCc2nc(N)c(C#N)c(-c3cccnc3)c2C1 (centres undefined) | inconclusive: 61.7% |
| COc1cc(-c2nc(-c3ccc(Br)o3)no2)cc(OC)c1OC | inconclusive: 42.7% |
| COc1cc(/C=N/NC(=O)c2ccccc2O)ccc1OC(=O)CC1SC(=O)NC1=O (centres undefined) | inconclusive: 37.6% |
| CN(CCO)c1cc(Sc2nc3ccccc3s2)c2nonc2c1[N+](=O)[O-] | inactive: 1.28% |
| CSc1cccc(NC(=O)c2ccccn2)c1 | inconclusive: 44.1% |
| Nc1ncnc(Nc2cc(C(F)(F)F)cc(C(F)(F)F)c2)n1 | inactive: 11% |
| COc1ccc(CNC(=O)CCc2nc3cc(S(=O)(=O)N(C)C)ccc3n2C)cc1OC | inconclusive: 35.2% |
| CC(=O)c1ccc(NC(=S)NC(=O)/C=C/c2ccco2)cc1 | inactive: 9.46% |
| NC(=NCCc1c[nH]c2ccccc12)NS(=O)(=O)c1cc(F)ccc1F | inconclusive: 34.5% |
| COC(=O)c1cc(C(=O)N2CCOCC2)cc([N+](=O)[O-])c1 | inconclusive: 50.1% |
| CCOc1ccc(NS(=O)(=O)c2ccc(N)cc2)cc1 | inconclusive: 55.6% |

| SMILES | inhibition |
| --- | --- |
| CC(C)CC(=O)Nc1cc(C(F)(F)F)ccc1N1CCOCC1 | inconclusive: 43.1% |
| CCOc1ccccc1NC(=O)CN(C)S(=O)(=O)c1ccc2[nH]c(=O)oc2c1 | inconclusive: 46.4% |
| CCOc1ccc(Nc2nnc(SCc3nc4ccccc4c(=O)[nH]3)s2)cc1 | inconclusive: 45.4% |
| COCCn1c(C)cc(C(=O)COC(=O)c2cc3c(s2)CCC3)c1C | inconclusive: 40.9% |
| CC(=O)C1=C(Nc2ccc(C)cc2)CC(C)(O)C(C(C)=O)C1c1ccco1 (centres undefined) | inconclusive: 41% |
| O=[N+]([O-])c1ccccc1-n1cnc2ccccc21 | inconclusive: 37.7% |
| O=c1[nH]c(-c2ccc(F)cc2)nc2c1sc(=S)n2-c1ccccc1 | inconclusive: 44.1% |
| CCOC(=O)C1=NNC(C(=O)c2ccc(C)cc2)C1c1ccc(OC)cc1 (centres undefined) | inconclusive: 43.8% |
| CCCCCC(=O)N/N=C(\C)c1ccccn1 | inconclusive: 44.1% |
| CCCCCc1nnc(NC(=O)CS(=O)(=O)Cc2ccccc2)s1 | inconclusive: 39.5% |
| O=C(C1=C[C@H](c2ccc(C(F)(F)F)cc2)C[C@H](OCCCCO)O1)N1CCOCC1 | inconclusive: 33% |
| COc1ccc(C2C(C(C)=O)=C(C)N=c3s/c(=C\c4ccco4)c(=O)n32)c(OC)c1 (centres undefined) | inactive: 31.2% |
| COc1cc(C2C(C#N)=C(N)Oc3n[nH]c(-c4cccnc4)c32)ccc1OCC(N)=O (centres undefined) | inconclusive: 61.9% |
| O=C(c1ccc(Cl)cc1)c1cnc(-c2ccccc2)s1 | inactive: -2.61% |
| c1cncc(-c2nc3ccccc3[nH]2)c1 | inconclusive: 37.6% |
| O=C(NC1CC1)c1ccc2c(c1)C1C3CCC(C3)C1C(c1ccccc1)N2 (centres undefined) | inactive: 3.47% |
| CCOC(=O)c1ccc(NC(=O)CCc2nc(-c3cccc(C)c3)no2)cc1 | inconclusive: 14.6% |
| COc1ccc(/C=C/C(=O)c2ccc(OC)cc2OC)c(OC)c1 | inconclusive: 51.6% |
| Cc1cc(SCC#N)n2nc(C)c(-c3ccc(Cl)cc3)c2n1 | inconclusive: 54.6% |
| CC(C)Cc1nnc(NC(=O)c2cc3c(s2)CCC3)s1 | inconclusive: 52.4% |
| Cc1cccc(CN2CCSc3sccc3C2=O)c1 | inconclusive: 38.7% |
| CCOC(=O)C(C)c1n[nH]c(=O)c2ccccc12 (centres undefined) | inconclusive: 45.8% |
| CCOc1cc2[nH]c(=S)n(CCOC)c(=O)c2cc1OCC | inconclusive: 35.7% |

Reprinted from above, 5 compounds:

| SMILES | inhibition |
| --- | --- |
| O=C(NC1CC1)c1ccc2c(c1)C1C3CCC(C3)C1C(c1ccccc1)N2 (centres undefined) | inactive: 3.47% |
| CCOC(=O)c1ccc(NC(=O)CCc2nc(-c3cccc(C)c3)no2)cc1 | inconclusive: 14.6% |
| COc1ccc(/C=C/C(=O)c2ccc(OC)cc2OC)c(OC)c1 | inconclusive: 51.6% |
| Cc1cc(SCC#N)n2nc(C)c(-c3ccc(Cl)cc3)c2n1 | inconclusive: 54.6% |
| CC(C)Cc1nnc(NC(=O)c2cc3c(s2)CCC3)s1 | inconclusive: 52.4% |

Further compounds follow:

| SMILES | inhibition |
| --- | --- |
| CCOC(=O)C1=C(CSc2nc3c(cc2C#N)CN(C)CC3)OC(N)=C(C#N)C1c1ccccc1 (centres undefined) | inconclusive: 33.3% |
| COc1cccc(/C=N\NC(=O)C2=NNC(=O)C2C)c1O (centres undefined) | inconclusive: 51.3% |
| Cc1cccc(-n2cccc2)c1C#N | inconclusive: 47.4% |
| CCOC(=O)c1cnc2nc(NCc3ccc(OCc4ccccc4)cc3)[nH]n2c1=O | inconclusive: 37% |
| O=C(O)/C(=C/c1ccc(Cl)c([N+](=O)[O-])c1)c1ccc(S(=O)(=O)N2CCCCC2)s1 | inactive: 19.6% |
| CC1=NN(c2ccccc2)C(=O)C1C=Nc1ccc(N(C)C)cc1 (centres undefined) | inconclusive: 39.2% |
| OC(CN1CCN(c2cccc(C(F)(F)F)c2)CC1)c1c[nH]c2ccccc12 (centres undefined) | inconclusive: 32% |
| CCCCNc1nc(N(C)c2ccccc2)nc(-n2ccnc2)n1 | inconclusive: 49% |
| CC(NC(=O)CCc1nnc(CCCc2ccccc2)o1)c1ccccc1 (centres undefined) | inconclusive: 58.3% |
| O=C(NC1CCCCCC1)c1cc(S(=O)(=O)N2CCC3(CC2)OCCO3)ccc1F | inconclusive: 39.7% |
| Cc1ccc(S(=O)(=O)NCCCCCC(=O)NC(C)(C)CO)cc1 | inconclusive: 37.8% |
| CC(/C=C1\SC(=S)N(C(C(=O)O)C(C)C)C1=O)=C\c1ccccc1 (centres undefined) | inactive: 9.15% |
| CCN(CC)C(=O)C1CCN(Cc2cn(C)nc2-c2ccc(Oc3ccccc3)cc2)CC1 | inconclusive: 40.8% |
| COc1ccccc1OCCCC(=O)Nc1nnc(C2CCCO2)s1 (centres undefined) | inactive: -0.39% |
| CCn1c(=N)n(CC(=O)c2cccc([N+](=O)[O-])c2)c2ccccc21 | inconclusive: 41.2% |
| O=c1nc2n(c3ccc([N+](=O)[O-])cc13)CCCCC2 | inactive: -7.12% |
| O=c1c2c3nc4ccccc4nc3n(Cc3ccccc3)c2ncn1Cc1ccco1 | inconclusive: 54.8% |
| CS(=O)(=O)c1cc([N+](=O)[O-])c(Sc2nc3ccccc3[nH]2)c([N+](=O)[O-])c1 | inconclusive: 47.1% |
| Cc1cc(C(=O)N/N=C/c2ccc[nH]2)n[nH]1 | inconclusive: 45.3% |
| O=C1C2CCCN2C(c2cccs2)N1c1ccc(Cl)cc1 (centres undefined) | inactive: -1.78% |
| CC(C)(C)C1CCc2c(sc(NC(=O)CSc3nnc(-c4ccccc4)o3)c2C#N)C1 (centres undefined) | inconclusive: 33.6% |
| Cc1cc(C)c(C)c(/C=C(/C#N)C(N)=S)c1C | inconclusive: 42.4% |
| O=C(Nc1ccc2c(c1)OCO2)c1cnn2c1NC(c1ccco1)CC2C(F)(F)F (centres undefined) | inconclusive: 55.7% |

| SMILES | inhibition |
| --- | --- |
| CCOC(=O)Cc1csc(NC(=O)CSc2nnc(C)n2C)n1 | inconclusive: 36.9% |
| COC(=O)c1nn(-c2ccccc2)c(Sc2ccc(Br)cc2)c1/C=N/O | inconclusive: 44.5% |
| N#CC1=C(Nc2ccccc2)SC=C(c2ccccc2)N=C1N1CCOCC1 | inactive: 23.5% |
| COc1ccc(-c2cc(=O)oc3cc(OCc4nn[nH]n4)ccc23)cc1 | inconclusive: 34.5% |
| Cc1ccc(S(=O)(=O)N(CC(=O)NCCC2=CCCCC2)Cc2ccccc2)cc1 | inconclusive: 60.6% |
| Cc1ccc(N=C2NC(=O)/C(=C\c3ccco3)S2)cc1 | inconclusive: 63.4% |
| c1ccc(N2CCN(c3ncccn3)CC2)cc1 | inactive: 2.21% |
| Cc1cccc(CS(=O)(=O)Cc2ccc(C(=O)NCCCN3CCOCC3)o2)c1 | inconclusive: 49.5% |
| Cc1oc(-c2ccccc2F)nc1CS(=O)CC(=O)NCc1ccc2c(c1)OCO2 (centres undefined) | inconclusive: 50.3% |
| CC1(C)c2ccccc2N2CCC(=O)NC21/C=C/c1ccco1 (centres undefined) | inconclusive: 58.3% |
| Cc1cccn2c(CN3CCCC(c4ccccc4)C3)c(C(=O)N3CCOCC3)nc12 (centres undefined) | inconclusive: 34.2% |
| Cc1ccnc(NC(=O)CSc2nnc3c(n2)[nH]c2ccccc23)c1 | inconclusive: 42.7% |
| CSc1ccc(C(=O)C2CCCN(Cc3cccn3-c3cccnc3)C2)cc1 (centres undefined) | inconclusive: 52.7% |
| CC(=O)N1CCN(c2ccc(NCc3ccc(C)cc3)cc2)CC1 | inconclusive: 42.2% |
| Cc1cccnc1-n1c(CCN2C(=O)c3ccccc3C2=O)nc2ccccc2c1=O | inconclusive: 45.2% |
| CCOC(=O)c1c(N)sc(C(O)(C(F)(F)F)C(F)(F)F)c1-c1ccccc1 | inconclusive: 47.6% |
| CCCCNC(=O)c1cccc(S(=O)(=O)N2CC3(C)CC2CC(C)(C)C3)c1 (centres undefined) | inconclusive: 41.7% |
| O=C1N/C(=C/c2cccn2-c2ccccc2)C(=O)N1Cc1ccccc1F | inactive: 0% |
| CCOC(=O)c1ccc(NS(=O)(=O)c2ccc3c(c2)oc(=O)n3C)cc1 | inactive: 69.3% |
| Cc1cc2nc(CCN(C(=S)NCC(C)C)C3CCCC3)[nH]c2cc1C | inconclusive: 34.7% |
